Values from PubChem BioAssay AID504791 (Drosophila RNAi Screening Center, 2011)
The screen tested about 23,000 reagents; this is a random part of those that have a named target and a result. Of all reagents, 199 (0.86%) were called active. 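Plate-scaled ratios behind the calls are not deposited; printed light signals are raw; many rows marked increased or decreased are still called inactive.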 Reagents against one gene are numbered here.

- Test: 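Genes of the fly required for silencing by miRNA, siRNA or endo-siRNA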 (primary screen)
- System: Drosophila S2-derived reporter cells
- Reagent: long dsRNA against Drosophila genes, about 150-250 ng dsRNA per well (siRNA assay); about 80-120 ng (miRNA assay)
- Timing: about 5 days (siRNA assay); about 4 days (miRNA assay)
- Conditions: copper sulfate induction of reporters: 25 µM (siRNA assay); 200 mM stated (miRNA assay), 1-2 days before reading
- Measurement: 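Dual luciferase assay: Renilla to firefly signal ratio in each well, scaled to the mean ratio of its plate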
- Scale: siRNA reporter hit score: higher = 3 marks a strong hit with raised ratio; -3 a strong hit with lowered ratio
- Hit rule: 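a well was a first-pass pick when its plate-scaled ratio rose above 1.5 (siRNA assay) or 1.6 (miRNA assay), or dropped below 0.6; a gene counted only if two separate dsRNAs agreed on retest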

gene knocked down	dsRNA no.	siRNA reporter hit score	stable siRNA reporter change	miRNA reporter change	stable assay Renilla, run 1 (luminescence)	stable assay firefly, run 1 (luminescence)	Call
CG8501	1				7590	3.74e5	inactive
Hasp	1				18566	1.34e6	inactive
Echs1	1				7082	4.84e5	inactive
Sf3b1	1	3		reporter ratio lowered past the hit cutoff	7751	5.66e5	active
Mpcp2	1				5652	3.51e5	inactive
Der-1	1				15192	7.14e5	inactive
uno	1				6191	3.74e5	inactive
Acox57D-d	1				10127	3.57e5	inactive
Hel89B	1				4523	3.52e5	inactive
Hel89B	2			reporter ratio lowered past the hit cutoff	9846	4.09e5	inactive
Pbp95	1				8005	4.64e5	inactive
CG31633	1				7094	3.92e5	inactive
tim	1				23592	3.78e5	inactive
ZnT35C	1				6751	4.79e5	inactive
Nup54	1				6200	3.29e5	inactive
stau	1				8334	2.74e5	inactive
tant	1				5952	3.63e5	inactive
CG9287	1				5068	4.47e5	inactive
CG9287	2				4704	3.84e5	inactive
AP-1-2beta	1				7736	5.11e5	inactive
CG12116	1				5318	2.62e5	inactive
firl	1				7214	4.92e5	inactive
Utx	1				6274	3.64e5	inactive
Sytbeta	1				6556	3.58e5	inactive
Sytbeta	2				7687	3.83e5	inactive
CG5913	1				6627	3.91e5	inactive
trr	1			reporter ratio lowered past the hit cutoff	7391	4.14e5	inactive
trr	2		reporter ratio lowered past the hit cutoff		3147	3.96e5	inactive
DIP-theta	1				2719	3.57e5	inactive
DIP-theta	2				7771	4.94e5	inactive
DIP-theta	3				8879	4.36e5	inactive
bol	1		reporter ratio raised past the hit cutoff		2080	55952	inactive
bol	2				6135	4.72e5	inactive
bol	3				5395	4.06e5	inactive
Dyrk3	1				4563	3.92e5	inactive
lic	1				5875	3.07e5	inactive
CG9500	1				9317	5.47e5	inactive
CG2794	1				7933	6.04e5	inactive
Gnpnat	1				10126	5.71e5	inactive
Alg14	1				5251	4.66e5	inactive
Lrpprc2	1				7553	4.85e5	inactive
CG30393	1				9680	6.10e5	inactive
CG42564	1				7243	4.25e5	inactive
CG31097	1				6974	2.96e5	inactive
ssp	1				7152	3.83e5	inactive
Act87E	1				4283	3.88e5	inactive
CG4250	1				8609	4.96e5	inactive
CG34187 (retired record)	1				5539	3.04e5	inactive
CG3544	1				34439	1.76e5	inactive
SPH93	1				7695	4.42e5	inactive
Mdh2 (retired record)	1				6762	3.39e5	inactive
Or47b	1				5847	3.33e5	inactive
CG15912	1				6362	2.89e5	inactive
Rbcn-3B	1				6432	3.25e5	inactive
CCT3	1				7818	2.42e5	inactive
CG33325	1				6594	4.16e5	inactive
CG31373	1				6998	5.35e5	inactive
CG14491	1				4587	3.65e5	inactive
pum	1				5243	2.72e5	inactive
pum	2				4104	3.60e5	inactive
pum	3				3484	3.75e5	inactive
pum	4				7179	4.86e5	inactive
pum	5				4696	3.15e5	inactive
pum	6				4080	4.14e5	inactive
pasi2	1				5719	5.02e5	inactive
CG30034 (retired record)	1				6843	3.97e5	inactive
CG11597	1				8586	5.02e5	inactive
CG30022	1				5163	4.42e5	inactive
CG7720	1				9291	5.63e5	inactive
CG7720	2				3943	4.46e5	inactive
CG6912	1				8991	6.22e5	inactive
Caf1-105	1				7072	3.35e5	inactive
Cby	1				8495	3.78e5	inactive
CG11893	1				6887	3.17e5	inactive
CG14096	1				4755	5.20e5	inactive
CG14096	2			reporter ratio lowered past the hit cutoff			inactive
Nipped-A	1				72582	1.29e6	inactive
Nipped-A	2		reporter ratio lowered past the hit cutoff		6134	7.80e5	active
Nipped-A	3				5492	4.82e5	inactive
Nipped-A	4		reporter ratio lowered past the hit cutoff		4879	4.85e5	inactive
Nipped-A	5		reporter ratio lowered past the hit cutoff		8485	8.38e5	active
Oat	1				10813	5.77e5	inactive
Rabex-5	1				10055	3.20e5	inactive
AOX4	1				7988	4.36e5	inactive
sunn	1				9402	4.55e5	inactive
Cht10	1				7591	4.27e5	inactive
Cht10	2				1.23e5	2.84e5	inactive
Cht10	3				7586	4.29e5	inactive
CG14259	1				6758	4.08e5	inactive
CG10949	1				9899	1.99e6	inactive
DUBAI	1				7411	3.49e5	inactive
CG15803	1				7138	3.58e5	inactive
CG15395	1				7135	3.84e5	inactive
Rpn13	1				4123	1.85e5	inactive
CG7889	1				3012	3.05e5	inactive
bmm	1				7519	2.83e5	inactive
Eato	1				1.20e5	1.46e6	inactive
Eato	2				7592	3.86e5	inactive
RSG7	1				4680	3.66e5	inactive
RSG7	2				5196	5.06e5	inactive
CG6409	1				5130	3.93e5	inactive
CG6409	2				10794	6.98e5	inactive
Dad1	1				6675	4.89e5	inactive
Rrp45	1				6608	3.75e5	inactive
lectin-37Da	1				4631	3.46e5	inactive
lectin-37Da	2				4576	6.14e5	inactive

16 entries from above, ordered by “stable assay firefly, run 1 (luminescence)”, lowest first.
gene knocked down	dsRNA no.	siRNA reporter hit score	stable siRNA reporter change	miRNA reporter change	stable assay Renilla, run 1 (luminescence)	stable assay firefly, run 1 (luminescence)	Call
bol	1		reporter ratio raised past the hit cutoff		2080	55952	inactive
lic	1				5875	3.07e5	inactive
DIP-theta	1				2719	3.57e5	inactive
Sytbeta	1				6556	3.58e5	inactive
Sytbeta	2				7687	3.83e5	inactive
CG5913	1				6627	3.91e5	inactive
Dyrk3	1				4563	3.92e5	inactive
trr	2		reporter ratio lowered past the hit cutoff		3147	3.96e5	inactive
bol	3				5395	4.06e5	inactive
trr	1			reporter ratio lowered past the hit cutoff	7391	4.14e5	inactive
DIP-theta	3				8879	4.36e5	inactive
bol	2				6135	4.72e5	inactive
DIP-theta	2				7771	4.94e5	inactive
CG9500	1				9317	5.47e5	inactive
Gnpnat	1				10126	5.71e5	inactive
CG2794	1				7933	6.04e5	inactive
